Test results from patent US20220175926A1, “TARGETED SYNERGISTIC CANCER IMMUNOTHERAPY” (The Brigham and Women's Hospital, Inc., priority 2019, published 2022).

Assay: ROS generation with sonosensitizer and ultrasound (DCFH fluorescent probe)

SMILES: CC1(C)C(/C=C/C=C/C=C/C=C2\N(CCCCS(=O)(=O)O)c3ccc4ccccc4c3C2(C)C)=[N+](CCCCS(=O)(=O)[O-])c2ccc3ccccc3c21 [ICG, indocyanine green]
- ROS levels (agent alone, no ultrasound): background levels of ROS
- ROS induced relative to ultrasound alone (sonosensitizer plus ultrasound, same ultrasound condition): over 2.5 fold
